Results are given in words; binding and its absence hold for the method and conditions named. In cells and extracts the contact can be indirect. Some results given as binding are weak or reduced against the parent protein; the word gives no strength.
Tests used:
[1] = target: T1, NOLC1 (human Nopp140) (human (endogenous in KKU-055 and KKU-213)) (UniProt Q14978); assay: co-IP; data not shown; short-time LAT1-inhibited (JPH203-treated) cells; cell line and time not stated
T1 sequence: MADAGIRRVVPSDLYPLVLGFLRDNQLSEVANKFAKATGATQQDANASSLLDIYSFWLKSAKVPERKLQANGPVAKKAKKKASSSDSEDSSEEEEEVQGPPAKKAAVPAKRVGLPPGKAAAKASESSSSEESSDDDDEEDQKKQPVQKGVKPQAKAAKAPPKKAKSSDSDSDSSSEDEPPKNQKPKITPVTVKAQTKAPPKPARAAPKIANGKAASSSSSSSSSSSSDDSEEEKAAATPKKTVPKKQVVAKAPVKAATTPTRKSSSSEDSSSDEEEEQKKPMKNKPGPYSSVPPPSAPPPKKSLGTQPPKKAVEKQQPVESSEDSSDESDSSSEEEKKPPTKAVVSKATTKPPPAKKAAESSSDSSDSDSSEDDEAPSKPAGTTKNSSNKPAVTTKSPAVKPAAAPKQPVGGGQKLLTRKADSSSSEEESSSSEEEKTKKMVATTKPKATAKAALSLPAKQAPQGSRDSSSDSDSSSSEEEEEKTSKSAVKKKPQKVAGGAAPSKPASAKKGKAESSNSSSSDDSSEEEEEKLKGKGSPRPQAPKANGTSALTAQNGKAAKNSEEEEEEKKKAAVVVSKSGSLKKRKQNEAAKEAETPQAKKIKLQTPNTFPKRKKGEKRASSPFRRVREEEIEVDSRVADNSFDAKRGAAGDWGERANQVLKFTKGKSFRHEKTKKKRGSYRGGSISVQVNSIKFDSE

Chains of the proteins cited; added tags and fusions are not shown.
UniProt P68400: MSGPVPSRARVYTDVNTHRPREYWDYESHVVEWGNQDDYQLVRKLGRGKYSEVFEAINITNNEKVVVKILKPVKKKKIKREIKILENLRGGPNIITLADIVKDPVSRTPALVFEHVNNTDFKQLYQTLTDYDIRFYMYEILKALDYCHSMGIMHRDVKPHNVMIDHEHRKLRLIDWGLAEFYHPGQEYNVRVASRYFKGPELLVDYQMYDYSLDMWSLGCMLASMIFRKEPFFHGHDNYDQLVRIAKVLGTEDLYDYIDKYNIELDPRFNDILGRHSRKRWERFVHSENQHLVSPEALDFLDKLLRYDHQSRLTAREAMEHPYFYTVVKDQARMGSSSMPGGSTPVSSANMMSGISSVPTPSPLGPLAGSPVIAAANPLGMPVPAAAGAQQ

[2] = target: T1, NOLC1 (human Nopp140) (human (endogenous in KKU-055 and KKU-213)); assay: co-IP; control (untreated) KKU-055 and KKU-213 cells; lysate in 50 mM Tris pH 7.4, 150 mM NaCl, 1% Triton X-100, PhosSTOP, protease inhibitors; 300 μg protein with 1 μg anti-NOLC1 antibody, 4 °C, protein A-agarose; Western blot for CK2α

binding [1]: binds
binding [2]: binds
Substance: CK2α (CSNK2A1), catalytic subunit of protein kinase CK2 (from UniProt P68400 1-391) (enzyme)
